Article PMC9061766

The chains behind the UniProt entries cited, without tags or fusion partners. Where a name states a change or a piece, a line headed by the entry shows the natural chain unless it says otherwise.
UniProt Q7ZWL0: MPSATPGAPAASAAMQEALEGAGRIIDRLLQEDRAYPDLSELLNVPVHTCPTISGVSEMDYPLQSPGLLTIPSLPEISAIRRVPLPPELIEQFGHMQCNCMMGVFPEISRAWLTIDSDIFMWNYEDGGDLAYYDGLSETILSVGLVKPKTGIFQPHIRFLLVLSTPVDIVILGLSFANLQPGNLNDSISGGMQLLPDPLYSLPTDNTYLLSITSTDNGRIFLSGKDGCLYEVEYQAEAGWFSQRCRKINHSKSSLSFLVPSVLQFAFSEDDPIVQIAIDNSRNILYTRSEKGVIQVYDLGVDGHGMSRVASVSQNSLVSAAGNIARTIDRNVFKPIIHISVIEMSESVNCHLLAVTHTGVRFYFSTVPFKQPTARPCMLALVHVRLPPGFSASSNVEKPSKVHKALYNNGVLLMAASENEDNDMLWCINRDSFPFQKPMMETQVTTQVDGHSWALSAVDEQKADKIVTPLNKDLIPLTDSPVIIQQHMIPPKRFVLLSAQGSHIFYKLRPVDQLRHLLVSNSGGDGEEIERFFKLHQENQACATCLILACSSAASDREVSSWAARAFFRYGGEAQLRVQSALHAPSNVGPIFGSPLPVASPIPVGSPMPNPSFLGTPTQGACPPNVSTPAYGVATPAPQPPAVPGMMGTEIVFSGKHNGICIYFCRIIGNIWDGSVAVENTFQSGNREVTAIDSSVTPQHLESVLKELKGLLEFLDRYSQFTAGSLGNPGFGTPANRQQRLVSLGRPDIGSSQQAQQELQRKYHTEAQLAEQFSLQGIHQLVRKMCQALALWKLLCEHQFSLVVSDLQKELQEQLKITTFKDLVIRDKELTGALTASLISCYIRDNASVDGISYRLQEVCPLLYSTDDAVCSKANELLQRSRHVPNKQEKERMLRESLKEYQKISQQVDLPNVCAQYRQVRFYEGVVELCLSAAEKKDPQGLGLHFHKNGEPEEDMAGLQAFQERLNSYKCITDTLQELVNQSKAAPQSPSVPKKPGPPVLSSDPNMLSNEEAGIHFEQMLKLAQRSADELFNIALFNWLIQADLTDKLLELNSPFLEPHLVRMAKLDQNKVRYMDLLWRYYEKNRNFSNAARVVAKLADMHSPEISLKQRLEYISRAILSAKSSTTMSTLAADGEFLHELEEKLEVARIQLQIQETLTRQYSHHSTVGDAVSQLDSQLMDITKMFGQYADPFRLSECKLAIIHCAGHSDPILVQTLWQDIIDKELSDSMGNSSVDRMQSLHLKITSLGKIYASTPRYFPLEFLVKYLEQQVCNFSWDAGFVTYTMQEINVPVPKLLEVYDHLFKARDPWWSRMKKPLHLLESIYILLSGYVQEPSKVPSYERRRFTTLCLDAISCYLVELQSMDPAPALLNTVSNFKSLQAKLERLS

Columns and labels:
Experiment in all cases: cryo-EM structure; single-particle cryo-EM of NPCs on the nuclear envelope from X. laevis oocytes; IR subunit reconstructed at 4.2 Å average resolution (local up to 3.8 Å); known and AlphaFold-predicted models docked into the map
[1] = target: T1, NDC1 (X. laevis (endogenous in oocytes)) (UniProt Q6AX31)
T1 sequence: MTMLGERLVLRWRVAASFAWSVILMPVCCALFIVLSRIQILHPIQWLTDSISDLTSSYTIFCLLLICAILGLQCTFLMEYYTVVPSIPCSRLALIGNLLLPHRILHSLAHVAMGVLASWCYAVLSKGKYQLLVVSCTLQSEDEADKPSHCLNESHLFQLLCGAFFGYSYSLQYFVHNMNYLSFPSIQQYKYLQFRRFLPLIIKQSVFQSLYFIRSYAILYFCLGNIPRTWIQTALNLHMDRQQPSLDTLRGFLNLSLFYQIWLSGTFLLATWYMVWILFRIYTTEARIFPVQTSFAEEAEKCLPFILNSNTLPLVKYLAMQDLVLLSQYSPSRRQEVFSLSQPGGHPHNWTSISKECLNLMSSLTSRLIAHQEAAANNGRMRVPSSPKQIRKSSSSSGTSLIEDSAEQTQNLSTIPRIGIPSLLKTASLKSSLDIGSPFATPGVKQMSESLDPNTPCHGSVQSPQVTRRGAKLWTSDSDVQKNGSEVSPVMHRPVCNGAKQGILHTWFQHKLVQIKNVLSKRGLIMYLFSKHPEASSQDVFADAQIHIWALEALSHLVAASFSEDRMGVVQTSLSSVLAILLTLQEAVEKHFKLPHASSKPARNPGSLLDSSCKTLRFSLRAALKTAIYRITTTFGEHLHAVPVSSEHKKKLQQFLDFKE

[2] = target: T2, Nup93 (X. laevis (endogenous in oocytes)) (UniProt Q7ZX96)
T2 sequence: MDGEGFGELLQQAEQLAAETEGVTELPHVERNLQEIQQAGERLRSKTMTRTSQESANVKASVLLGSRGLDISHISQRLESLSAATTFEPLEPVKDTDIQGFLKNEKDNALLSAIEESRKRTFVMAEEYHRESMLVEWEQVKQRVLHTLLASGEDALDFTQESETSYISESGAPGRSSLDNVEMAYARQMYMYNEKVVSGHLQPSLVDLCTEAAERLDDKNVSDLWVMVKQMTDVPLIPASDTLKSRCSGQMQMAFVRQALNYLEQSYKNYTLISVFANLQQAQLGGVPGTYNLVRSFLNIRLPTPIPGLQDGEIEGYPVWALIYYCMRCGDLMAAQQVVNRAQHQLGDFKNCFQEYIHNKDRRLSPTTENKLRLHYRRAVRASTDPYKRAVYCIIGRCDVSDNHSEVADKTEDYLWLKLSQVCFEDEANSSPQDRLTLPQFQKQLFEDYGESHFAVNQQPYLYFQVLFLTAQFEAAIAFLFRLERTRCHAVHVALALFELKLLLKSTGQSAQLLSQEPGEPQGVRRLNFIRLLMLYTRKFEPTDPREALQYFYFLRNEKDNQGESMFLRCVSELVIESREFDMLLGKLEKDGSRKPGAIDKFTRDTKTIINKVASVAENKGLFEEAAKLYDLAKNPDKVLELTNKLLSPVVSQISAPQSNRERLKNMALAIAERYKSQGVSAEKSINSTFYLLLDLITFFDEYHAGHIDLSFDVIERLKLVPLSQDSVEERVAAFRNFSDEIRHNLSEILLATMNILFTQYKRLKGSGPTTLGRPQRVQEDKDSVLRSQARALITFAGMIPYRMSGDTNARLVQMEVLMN

[3] = target: Nup188 (X. laevis (endogenous in oocytes))
[4] = target: channel nucleoporin hetero-trimer (Nup62/Nup58/Nup54) (X. laevis (endogenous in oocytes))

ALADIN (X. laevis (endogenous in oocytes))
binding [1]: binds

Nup155 (from UniProt Q7ZWL0)
binding [2]: binds

B1: Nup93 (protein, UniProt Q7ZX96 1-820)
chain: T2 sequence
binding [3]: binds | binding [4]: binds

Results are given in words; binding and its absence hold for the method and conditions named. A result given as binding can be weak or reduced; the word gives no strength.
